{"source": "patent US6863211B2", "about": "“Omega-hydrofluoroalkyl ethers, precursor carboxylic acids and derivatives thereof, and their preparation and application” (3M Innovative Properties Company, priority 1994, dated 2005)", "experiment": "Blowing agent for foamed polyurethane", "settings": "1.87 pbw as blowing agent in polyurethane foam", "method": "Omega-hydrofluoralkyl ether compounds of this invention were evaluated as blowing agents for foams using the procedures taught in U.S. Pat. No. 5,210,106 (Dams et al.). Component A contained 15.0 parts by weight of PAPI™27, a methylene diphenyldiisocyanate having an isocyanate equivalent of 134.0, available from Dow Chemical. Component B of the foam contained 10.5 parts by weight (pbw) of Voranol™ 360, a polyether polyol with a hydroxyl number of 360 available from Dow Chemical; 0.26 pbw of water; 0.26 pbw of an oligomeric fluorochemical surfactant as described in Example 1 of U.S. Pat. No. 3,787,351; 0.13 pbw of Polycat™ 8, a N,N-dimethylcyclohexylamine catalyst available from Air Products; and 1.87 pbw of C4F9OCF2CF2H as the blowing agent.\nThe ingredients of Component B were mixed to obtain an emulsion which was then admixed with Component A and stirred at 2500 rpm for 10 seconds. The cream time of the foam was approximately 10 seconds. Rise time and tack-free time was approximately 2 and 3 minutes respectively."}
{"smiles": "FC(F)C(F)(F)OC(F)(F)C(F)(F)C(F)(F)C(F)(F)F", "note": "[C4F9OC2F4H, C4F9—O—C2F4H]", "values": [{"measurement": "Appearance of resulting polyurethane foam", "value": "rigid and had a uniform distribution of very fine, closed cells"}, {"measurement": "Cream time of the foam", "value": "approximately 10 seconds"}, {"measurement": "Rise time of the foam", "value": "approximately 2 minutes"}, {"measurement": "Tack-free time of the foam", "value": "~3", "unit": "min"}]}
